Data: PubChem BioAssay AID292 (DTP/NCI, 2004)
The list is a part of this screen's results and no random one: it is rich in T/C values a quarter to a half above the control, in often repeated tests (any T/C) and in doses without a T/C. Other doses and runs of a compound stand elsewhere. T/C: endpoint of the treated group in % of that of the vehicle group. Some entries give survivors of the animals treated and no T/C: the source holds a T/C of zero for them, seemingly a mark for toxic or unscored doses. Some survivor counts are full or nearly so, which does not show that the dose was tolerated: survival well below the control is almost never listed, so the zero probably covers shortened survival too. Counts of survivors are from the toxicity check (mostly the fifth day) where no day follows; animals may have died later. Schedules are NCI's codes, taken here to give the interval after Q, in days (D) or hours (H), and the number of doses after X. Some entries hold several experiments; the values are given in rising order. Additions like (4×) count equal records among those shown. For survival time, this PubChem deposit counts one and a half times the control or more as active, and values a quarter to a half above the control carry no call in these data; other NCI protocols may use other cut-offs. Some T/C values are followed by the survivors on the day toxicity was checked, most often the fifth; where none is given, no animal had died by that day.

Test system: B6C3F1 mice, ip Sarcoma M5076, median survival T/C
Test: NCI In Vivo Anticancer Drug Screen. Data for tumor model Sarcoma M5076 (intraperitoneal) in B6C3F1 mice
Settings: T/C endpoint: median survival time, higher T/C = longer survival
In short: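 Transplantable tumour in mice; compound-treated vs vehicle-treated groups. Read-out: survival. Value = treated/control ratio.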

[1] = dose: 800.0 mg/kg/injection, schedule: Q04DX004 (ip), vehicle: saline with Tween-80
[2] = dose: 800.0 mg/kg/injection, schedule: Q04DX005 (ip), vehicle: saline with Tween-80

With `C[n+]1c2cc(N)ccc2cc2ccc(N)cc21` the T/C (dose: 3.0 mg/kg/injection, schedule: Q04DX004 (ip), vehicle: saline) was 128 and 132 % of control, the T/C (dose: 12.0 mg/kg/injection, schedule: Q04DX004 (ip), vehicle: saline) was 128 % of control [8 of 10 alive on day 14] and the survivor count (dose: 24.0 mg/kg/injection, schedule: Q04DX004 (ip), vehicle: saline) was 6 of 10 on day 14. For the same compound, the survivor count (dose: 48.0 mg/kg/injection, schedule: Q04DX004 (ip), vehicle: saline) was 0 of 10 on day 14.
With `COc1ccc2c(n1)Sc1nc3ccccc3nc1N2` the survivor count (dose: 300.0 mg/kg/injection, schedule: Q04DX004 (ip), vehicle: saline with Tween-80) was 10 of 10 on day 14 and the survivor count (dose: 600.0 mg/kg/injection, schedule: Q04DX004 (ip), vehicle: saline with Tween-80) was 10 of 10 on day 14.
`CN(C)C(=O)Nc1ccc(Cl)cc1` was tested, and the survivor count (dose: 800.0 mg/kg/injection, schedule: Q04DX004 (ip), vehicle: suspension in saline) was 0 of 10 on day 9 and 6 of 10 on day 9.
In the case of `CSC1=NCc2c(sc3c2CCCC3)N1`, the survivor count (dose: 600.0 mg/kg/injection, schedule: Q04DX004 (ip), vehicle: Klucel (hydroxypropylcellulose) (HPC)) is reported as 1 of 10 on day 14.
For `CC1(O)C=CC(=O)C=C1`, the survivor count (dose: 100.0 mg/kg/injection, schedule: Q04DX004 (ip), vehicle: water) was 0 of 10 on day 14 and 1 of 10 on day 14 and the survivor count (dose: 200.0 mg/kg/injection, schedule: Q04DX004 (ip), vehicle: water) was 0 of 10 on day 14.
For `O=C(N/N=C/c1ccc(O)cc1)c1ccc(OCc2nc3ccccc3[nH]2)cc1`, the survivor count (dose: 50.0 mg/kg/injection, schedule: Q04DX004 (ip), vehicle: Klucel (hydroxypropylcellulose) (HPC)) was 10 of 10 on day 14 and the survivor count (dose: 200.0 mg/kg/injection, schedule: Q04DX004 (ip), vehicle: Klucel (hydroxypropylcellulose) (HPC)) was 10 of 10 on day 14.
With `CC[C@@]1(O)C(=O)OCc2c1cc1n(c2=O)Cc2cc3c(N)cccc3nc2-1` the T/C (dose: 0.5 mg/kg/injection, schedule: Q04DX004 (ip), vehicle: saline with Tween-80) was 142 and 149 % of control, the survivor count (dose: 2.0 mg/kg/injection, schedule: Q04DX004 (ip), vehicle: saline with Tween-80) was 6 of 10 on day 14 and the survivor count (dose: 4.0 mg/kg/injection, schedule: Q04DX004 (ip), vehicle: saline with Tween-80) was 0 of 10 on day 14. For the same compound, the survivor count (dose: 8.0 mg/kg/injection, schedule: Q04DX004 (ip), vehicle: saline with Tween-80) was 0 of 10 on day 14.
In the case of `CC(CN1CC(=O)NC(=O)C1)N1CC(=O)NC(=O)C1` (centres undefined), the T/C (dose: 100.0 mg/kg/injection, schedule: Q04DX004 (ip), vehicle: saline with Tween-80, evaluated on day 60) is reported as 111 % of control [9 of 10 alive on day 14], the T/C (dose: 100.0 mg/kg/injection, schedule: Q04DX004 (ip), vehicle: saline with Tween-80, evaluated on day 75) is reported as 111, 113, 114, 116, 118, 120, 126 % of control and the T/C (dose: 100.0 mg/kg/injection, schedule: Q04DX005 (ip), vehicle: saline with Tween-80, evaluated on day 75) is reported as 106, 107, 109, 127 % of control. The T/C (dose: 100.0 mg/kg/injection, schedule: Q04DX005 (ip), vehicle: saline with Tween-80, evaluated on day 100) was 129 % of control, the T/C (dose: 200.0 mg/kg/injection, schedule: Q04DX004 (ip), vehicle: saline with Tween-80, evaluated on day 60) was 118 % of control and the T/C (dose: 200.0 mg/kg/injection, schedule: Q04DX004 (ip), vehicle: saline with Tween-80, evaluated on day 75) was 108 [9 of 10 alive on day 14], 109, 116, 118, 124, 141, 144 % of control. The T/C (dose: 200.0 mg/kg/injection, schedule: Q04DX005 (ip), vehicle: saline with Tween-80, evaluated on day 75) was 100, 110, 114, 130 % of control [9 of 10 alive on day 9], the T/C (dose: 200.0 mg/kg/injection, schedule: Q04DX005 (ip), vehicle: saline with Tween-80, evaluated on day 100) was 137 % of control and the T/C (dose: 400.0 mg/kg/injection, schedule: Q04DX004 (ip), vehicle: saline with Tween-80, evaluated on day 60) was 123 % of control [9 of 10 alive on day 14]. For the same compound, the T/C (dose: 400.0 mg/kg/injection, schedule: Q04DX004 (ip), vehicle: saline with Tween-80, evaluated on day 75) was 112, 115 [9 of 10 alive on day 9], 117 [7 of 9 alive on day 14], 119 [9 of 10 alive on day 14], 122 [9 of 10 alive on day 9], 147 [8 of 10 alive on day 9], 150 % of control [9 of 10 alive on day 14], the T/C (dose: 400.0 mg/kg/injection, schedule: Q04DX005 (ip), vehicle: saline with Tween-80, evaluated on day 75) was 115, 120, 128 % of control and the T/C (dose: 400.0 mg/kg/injection, schedule: Q04DX005 (ip), vehicle: saline with Tween-80, evaluated on day 100) was 161 % of control. The survivor count (dose: 400.0 mg/kg/injection, schedule: Q04DX005 (ip), vehicle: saline with Tween-80) was 6 of 10 on day 9, the T/C [1] was 110 and 111 % of control and the survivor count [1] was 0 of 10 on day 14, 5 of 10 on day 14, 6 of 10 on day 14 (2×), 7 of 10 on day 9, 8 of 10 on day 9. The T/C [2] was 112 [9 of 10 alive] and 148 % of control and the survivor count [2] was 3 of 10 on day 9 and 8 of 10 on day 9.
`CC1C(c2ccccc2)OC(N2CCOCC2)C(C)(C)CN1C` (centres undefined) was tested, and the survivor count (dose: 1200.0 mg/kg/injection, schedule: Q04DX004 (ip), vehicle: saline with Tween-80) was 0 of 10 on day 14.
For `COc1ccccc1NC(=O)C1C(=O)C(=O)N(c2ccccc2OC)C1=O` (centres undefined), the survivor count (dose: 400.0 mg/kg/injection, schedule: Q04DX004 (ip), vehicle: Klucel (hydroxypropylcellulose) (HPC)) was 9 of 10 on day 14 and the survivor count (dose: 800.0 mg/kg/injection, schedule: Q04DX004 (ip), vehicle: Klucel (hydroxypropylcellulose) (HPC)) was 7 of 10 on day 14.
With `CNc1nc(N(C)C)nc(N(C)C)n1` the survivor count (dose: 400.0 mg/kg/injection, schedule: Q04DX004 (ip), vehicle: suspension in saline) was 0 of 10 on day 14.
In the case of `c1ccc2[nH]c(CN(CCN(Cc3nc4ccccc4[nH]3)Cc3nc4ccccc4[nH]3)Cc3nc4ccccc4[nH]3)nc2c1`, the survivor count (dose: 25.0 mg/kg/injection, schedule: Q04DX004 (ip), vehicle: other) is reported as 3 of 10 on day 14 and the survivor count (dose: 50.0 mg/kg/injection, schedule: Q04DX004 (ip), vehicle: other) is reported as 1 of 10 on day 14.
